In doi:10.1101/2025.04.28.650926 (bioRxiv, 2025):
Results are given in words; binding and its absence hold for the method and conditions named. Some entries that bind do so weakly or less than the wild type.

Tests used:
Details in all cases: remark: other sources report otherwise
[1] = molecular target: T1, Heat shock factor 1, wild type (HSF1-WT) (human), Q00613; experiment: dynamic light scattering
T1 chain: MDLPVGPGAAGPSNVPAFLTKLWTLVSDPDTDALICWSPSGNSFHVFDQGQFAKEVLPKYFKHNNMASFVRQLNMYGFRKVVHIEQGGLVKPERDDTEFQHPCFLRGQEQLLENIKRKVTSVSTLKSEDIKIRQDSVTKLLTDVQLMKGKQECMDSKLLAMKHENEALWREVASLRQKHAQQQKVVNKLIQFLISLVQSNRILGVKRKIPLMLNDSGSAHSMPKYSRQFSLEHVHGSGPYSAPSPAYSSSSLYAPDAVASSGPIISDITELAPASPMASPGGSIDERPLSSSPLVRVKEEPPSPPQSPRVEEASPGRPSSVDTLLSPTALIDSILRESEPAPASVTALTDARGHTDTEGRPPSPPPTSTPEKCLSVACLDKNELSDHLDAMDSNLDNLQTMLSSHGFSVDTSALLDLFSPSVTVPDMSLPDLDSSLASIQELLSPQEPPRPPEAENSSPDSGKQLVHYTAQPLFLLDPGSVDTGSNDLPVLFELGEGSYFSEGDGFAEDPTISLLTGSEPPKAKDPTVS

[2] = molecular target: T1, Heat shock factor 1, wild type …; experiment: native gel or EMSA
[3] = molecular target: T1, Heat shock factor 1, wild type …; experiment: native gel or EMSA

Measured: binding

B1: Heat shock factor 1, wild type (HSF1-WT), Q00613 1-529 (protein)
chain: MDLPVGPGAAGPSNVPAFLTKLWTLVSDPDTDALICWSPSGNSFHVFDQGQFAKEVLPKYFKHNNMASFVRQLNMYGFRKVVHIEQGGLVKPERDDTEFQHPCFLRGQEQLLENIKRKVTSVSTLKSEDIKIRQDSVTKLLTDVQLMKGKQECMDSKLLAMKHENEALWREVASLRQKHAQQQKVVNKLIQFLISLVQSNRILGVKRKIPLMLNDSGSAHSMPKYSRQFSLEHVHGSGPYSAPSPAYSSSSLYAPDAVASSGPIISDITELAPASPMASPGGSIDERPLSSSPLVRVKEEPPSPPQSPRVEEASPGRPSSVDTLLSPTALIDSILRESEPAPASVTALTDARGHTDTEGRPPSPPPTSTPEKCLSVACLDKNELSDHLDAMDSNLDNLQTMLSSHGFSVDTSALLDLFSPSVTVPDMSLPDLDSSLASIQELLSPQEPPRPPEAENSSPDSGKQLVHYTAQPLFLLDPGSVDTGSNDLPVLFELGEGSYFSEGDGFAEDPTISLLTGSEPPKAKDPTVS
binds: all assays above
